From the supplement of paper PMC10849652
The other results are listed elsewhere or left out.

Chains of the proteins cited; added tags and fusions are not shown. Lines headed by an entry give the natural chain unless they say otherwise; changes in a name come on top.
UniProt P07099: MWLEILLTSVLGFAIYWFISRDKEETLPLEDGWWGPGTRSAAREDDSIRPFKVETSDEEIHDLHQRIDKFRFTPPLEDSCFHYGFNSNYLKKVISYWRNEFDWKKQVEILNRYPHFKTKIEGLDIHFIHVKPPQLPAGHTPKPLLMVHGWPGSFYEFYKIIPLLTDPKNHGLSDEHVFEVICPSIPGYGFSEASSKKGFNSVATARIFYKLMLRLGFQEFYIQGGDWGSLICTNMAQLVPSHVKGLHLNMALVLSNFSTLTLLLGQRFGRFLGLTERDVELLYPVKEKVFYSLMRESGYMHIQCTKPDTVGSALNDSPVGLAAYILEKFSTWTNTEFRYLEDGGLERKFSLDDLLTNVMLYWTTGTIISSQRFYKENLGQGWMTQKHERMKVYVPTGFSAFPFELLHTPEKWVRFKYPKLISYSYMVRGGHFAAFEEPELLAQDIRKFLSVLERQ
UniProt Q7L5Y1: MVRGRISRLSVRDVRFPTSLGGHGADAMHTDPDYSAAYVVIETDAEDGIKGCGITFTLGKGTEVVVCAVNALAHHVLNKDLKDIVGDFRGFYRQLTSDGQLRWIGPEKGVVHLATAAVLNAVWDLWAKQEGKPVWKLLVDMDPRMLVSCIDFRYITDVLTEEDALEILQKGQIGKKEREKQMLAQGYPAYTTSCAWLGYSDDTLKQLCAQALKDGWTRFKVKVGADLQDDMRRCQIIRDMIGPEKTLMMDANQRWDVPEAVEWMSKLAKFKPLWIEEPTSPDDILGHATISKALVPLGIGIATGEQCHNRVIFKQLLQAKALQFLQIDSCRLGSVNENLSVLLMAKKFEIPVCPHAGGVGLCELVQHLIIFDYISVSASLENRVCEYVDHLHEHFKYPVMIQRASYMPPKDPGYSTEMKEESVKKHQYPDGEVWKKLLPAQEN
UniProt Q9NYP7: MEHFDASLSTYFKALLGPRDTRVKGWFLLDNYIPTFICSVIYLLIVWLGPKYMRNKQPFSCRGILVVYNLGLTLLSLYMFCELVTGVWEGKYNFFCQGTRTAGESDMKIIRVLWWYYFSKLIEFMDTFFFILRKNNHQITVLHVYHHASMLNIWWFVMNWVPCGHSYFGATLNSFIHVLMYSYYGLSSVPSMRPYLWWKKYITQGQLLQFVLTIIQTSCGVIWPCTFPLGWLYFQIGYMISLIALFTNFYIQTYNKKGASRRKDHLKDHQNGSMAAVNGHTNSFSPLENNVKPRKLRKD
UniProt O75822, whole entry, looked up: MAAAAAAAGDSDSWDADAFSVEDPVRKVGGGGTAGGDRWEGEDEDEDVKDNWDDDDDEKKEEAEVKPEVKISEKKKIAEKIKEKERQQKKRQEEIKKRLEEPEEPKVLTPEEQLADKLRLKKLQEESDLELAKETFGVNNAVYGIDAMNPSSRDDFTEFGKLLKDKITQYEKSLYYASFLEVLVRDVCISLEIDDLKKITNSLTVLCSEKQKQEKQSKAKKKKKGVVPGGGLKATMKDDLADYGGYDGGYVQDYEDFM
UniProt Q96JJ3: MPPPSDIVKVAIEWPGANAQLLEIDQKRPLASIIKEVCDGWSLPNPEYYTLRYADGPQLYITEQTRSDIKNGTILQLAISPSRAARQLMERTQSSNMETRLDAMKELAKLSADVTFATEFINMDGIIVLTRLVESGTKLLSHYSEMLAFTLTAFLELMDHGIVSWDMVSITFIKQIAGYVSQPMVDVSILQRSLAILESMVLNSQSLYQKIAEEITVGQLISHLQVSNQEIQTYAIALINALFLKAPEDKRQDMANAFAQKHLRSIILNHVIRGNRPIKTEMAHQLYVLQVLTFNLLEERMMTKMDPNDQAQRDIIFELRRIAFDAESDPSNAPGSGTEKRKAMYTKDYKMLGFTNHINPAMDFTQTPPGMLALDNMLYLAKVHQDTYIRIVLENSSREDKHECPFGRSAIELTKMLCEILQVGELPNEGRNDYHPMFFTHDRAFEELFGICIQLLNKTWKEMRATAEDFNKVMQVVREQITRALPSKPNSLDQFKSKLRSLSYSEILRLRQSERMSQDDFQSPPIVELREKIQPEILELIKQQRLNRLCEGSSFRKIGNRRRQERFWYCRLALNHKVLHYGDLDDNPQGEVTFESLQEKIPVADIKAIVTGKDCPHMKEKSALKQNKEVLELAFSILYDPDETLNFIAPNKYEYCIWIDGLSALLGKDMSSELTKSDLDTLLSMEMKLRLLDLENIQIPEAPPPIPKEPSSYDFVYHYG
UniProt Q9Y2J2, whole entry, looked up: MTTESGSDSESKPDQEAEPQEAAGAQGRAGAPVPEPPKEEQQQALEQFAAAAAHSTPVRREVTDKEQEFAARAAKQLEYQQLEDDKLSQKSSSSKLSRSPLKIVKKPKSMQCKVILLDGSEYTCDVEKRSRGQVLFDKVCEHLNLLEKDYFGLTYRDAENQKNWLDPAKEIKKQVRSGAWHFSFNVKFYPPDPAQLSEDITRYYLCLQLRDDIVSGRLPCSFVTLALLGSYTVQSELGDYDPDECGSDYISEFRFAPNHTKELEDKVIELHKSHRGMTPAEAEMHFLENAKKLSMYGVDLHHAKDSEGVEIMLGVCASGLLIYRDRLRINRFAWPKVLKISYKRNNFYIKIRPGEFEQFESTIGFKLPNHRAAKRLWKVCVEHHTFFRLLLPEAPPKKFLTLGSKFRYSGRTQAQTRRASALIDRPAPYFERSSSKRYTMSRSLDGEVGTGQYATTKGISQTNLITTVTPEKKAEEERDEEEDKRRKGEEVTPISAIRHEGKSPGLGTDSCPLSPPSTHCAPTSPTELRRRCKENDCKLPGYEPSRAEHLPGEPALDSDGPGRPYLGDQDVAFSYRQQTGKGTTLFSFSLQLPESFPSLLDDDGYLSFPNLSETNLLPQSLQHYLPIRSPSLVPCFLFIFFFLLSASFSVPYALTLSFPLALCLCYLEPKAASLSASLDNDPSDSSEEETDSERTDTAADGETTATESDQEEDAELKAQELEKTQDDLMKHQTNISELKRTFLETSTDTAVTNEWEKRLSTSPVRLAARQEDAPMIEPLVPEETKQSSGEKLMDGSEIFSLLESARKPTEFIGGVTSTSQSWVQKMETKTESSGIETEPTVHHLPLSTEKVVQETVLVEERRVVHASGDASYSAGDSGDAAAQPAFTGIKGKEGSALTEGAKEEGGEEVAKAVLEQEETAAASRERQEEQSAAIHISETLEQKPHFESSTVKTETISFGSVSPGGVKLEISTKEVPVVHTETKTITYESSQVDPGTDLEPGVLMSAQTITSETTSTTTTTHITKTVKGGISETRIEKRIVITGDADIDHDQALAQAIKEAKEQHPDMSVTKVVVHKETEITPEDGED
UniProt Q9Y262, whole entry, looked up: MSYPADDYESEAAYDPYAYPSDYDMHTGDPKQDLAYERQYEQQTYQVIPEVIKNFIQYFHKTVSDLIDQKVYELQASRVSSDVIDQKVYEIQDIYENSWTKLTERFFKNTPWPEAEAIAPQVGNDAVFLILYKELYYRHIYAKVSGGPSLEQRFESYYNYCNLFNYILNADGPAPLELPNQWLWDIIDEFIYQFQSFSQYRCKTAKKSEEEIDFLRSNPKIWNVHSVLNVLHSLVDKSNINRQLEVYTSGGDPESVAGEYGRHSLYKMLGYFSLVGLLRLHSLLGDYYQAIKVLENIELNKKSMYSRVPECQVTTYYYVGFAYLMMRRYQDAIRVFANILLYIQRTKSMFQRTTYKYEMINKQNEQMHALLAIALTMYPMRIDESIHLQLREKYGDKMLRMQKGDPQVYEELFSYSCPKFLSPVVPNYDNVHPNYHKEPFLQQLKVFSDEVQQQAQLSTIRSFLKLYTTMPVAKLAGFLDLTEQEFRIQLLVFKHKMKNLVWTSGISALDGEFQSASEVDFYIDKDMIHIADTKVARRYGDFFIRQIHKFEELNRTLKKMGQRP
UniProt P0DP91, whole entry, looked up: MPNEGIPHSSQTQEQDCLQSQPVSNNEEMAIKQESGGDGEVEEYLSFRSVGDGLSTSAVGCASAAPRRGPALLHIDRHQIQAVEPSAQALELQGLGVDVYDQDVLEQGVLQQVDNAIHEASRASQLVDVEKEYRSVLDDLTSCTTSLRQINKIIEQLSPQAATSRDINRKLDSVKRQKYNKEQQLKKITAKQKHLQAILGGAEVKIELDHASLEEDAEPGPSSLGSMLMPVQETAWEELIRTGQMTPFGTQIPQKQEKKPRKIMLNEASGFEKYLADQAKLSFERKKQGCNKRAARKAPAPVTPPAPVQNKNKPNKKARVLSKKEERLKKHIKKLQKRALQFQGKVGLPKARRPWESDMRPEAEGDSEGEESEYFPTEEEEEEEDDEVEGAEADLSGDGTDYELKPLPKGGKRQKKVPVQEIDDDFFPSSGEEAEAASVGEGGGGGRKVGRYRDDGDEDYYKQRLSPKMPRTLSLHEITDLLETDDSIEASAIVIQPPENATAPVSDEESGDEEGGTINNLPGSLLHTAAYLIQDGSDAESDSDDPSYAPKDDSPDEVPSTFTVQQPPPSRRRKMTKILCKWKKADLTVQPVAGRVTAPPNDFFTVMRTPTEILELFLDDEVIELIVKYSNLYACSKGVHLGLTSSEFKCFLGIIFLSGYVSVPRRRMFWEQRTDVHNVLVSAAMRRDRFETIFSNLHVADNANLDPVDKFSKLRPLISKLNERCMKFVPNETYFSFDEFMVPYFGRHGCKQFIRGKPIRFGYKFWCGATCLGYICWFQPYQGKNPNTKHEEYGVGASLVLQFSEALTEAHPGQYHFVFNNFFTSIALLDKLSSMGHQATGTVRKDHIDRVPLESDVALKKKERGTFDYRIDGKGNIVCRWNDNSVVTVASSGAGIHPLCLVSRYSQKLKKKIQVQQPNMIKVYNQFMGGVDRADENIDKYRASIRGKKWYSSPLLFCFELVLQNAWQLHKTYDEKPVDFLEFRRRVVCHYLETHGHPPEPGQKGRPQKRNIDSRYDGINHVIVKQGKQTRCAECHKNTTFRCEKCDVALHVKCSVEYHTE
UniProt Q9Y6I3: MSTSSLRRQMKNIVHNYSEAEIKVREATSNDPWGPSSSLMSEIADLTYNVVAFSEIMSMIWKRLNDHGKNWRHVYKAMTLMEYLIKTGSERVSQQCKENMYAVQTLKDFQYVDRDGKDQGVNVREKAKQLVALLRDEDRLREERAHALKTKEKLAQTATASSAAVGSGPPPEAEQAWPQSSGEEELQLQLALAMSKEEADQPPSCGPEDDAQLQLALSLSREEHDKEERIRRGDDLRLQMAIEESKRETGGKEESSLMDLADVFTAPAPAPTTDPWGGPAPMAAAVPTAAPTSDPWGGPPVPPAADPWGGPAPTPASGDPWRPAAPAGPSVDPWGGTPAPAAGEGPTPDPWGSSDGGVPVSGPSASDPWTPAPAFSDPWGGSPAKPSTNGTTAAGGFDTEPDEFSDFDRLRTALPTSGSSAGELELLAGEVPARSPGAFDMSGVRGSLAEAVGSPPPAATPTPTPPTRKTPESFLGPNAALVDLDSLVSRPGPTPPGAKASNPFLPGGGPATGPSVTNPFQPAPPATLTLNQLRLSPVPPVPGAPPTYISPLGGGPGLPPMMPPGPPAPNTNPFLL
UniProt O43491, whole entry, looked up: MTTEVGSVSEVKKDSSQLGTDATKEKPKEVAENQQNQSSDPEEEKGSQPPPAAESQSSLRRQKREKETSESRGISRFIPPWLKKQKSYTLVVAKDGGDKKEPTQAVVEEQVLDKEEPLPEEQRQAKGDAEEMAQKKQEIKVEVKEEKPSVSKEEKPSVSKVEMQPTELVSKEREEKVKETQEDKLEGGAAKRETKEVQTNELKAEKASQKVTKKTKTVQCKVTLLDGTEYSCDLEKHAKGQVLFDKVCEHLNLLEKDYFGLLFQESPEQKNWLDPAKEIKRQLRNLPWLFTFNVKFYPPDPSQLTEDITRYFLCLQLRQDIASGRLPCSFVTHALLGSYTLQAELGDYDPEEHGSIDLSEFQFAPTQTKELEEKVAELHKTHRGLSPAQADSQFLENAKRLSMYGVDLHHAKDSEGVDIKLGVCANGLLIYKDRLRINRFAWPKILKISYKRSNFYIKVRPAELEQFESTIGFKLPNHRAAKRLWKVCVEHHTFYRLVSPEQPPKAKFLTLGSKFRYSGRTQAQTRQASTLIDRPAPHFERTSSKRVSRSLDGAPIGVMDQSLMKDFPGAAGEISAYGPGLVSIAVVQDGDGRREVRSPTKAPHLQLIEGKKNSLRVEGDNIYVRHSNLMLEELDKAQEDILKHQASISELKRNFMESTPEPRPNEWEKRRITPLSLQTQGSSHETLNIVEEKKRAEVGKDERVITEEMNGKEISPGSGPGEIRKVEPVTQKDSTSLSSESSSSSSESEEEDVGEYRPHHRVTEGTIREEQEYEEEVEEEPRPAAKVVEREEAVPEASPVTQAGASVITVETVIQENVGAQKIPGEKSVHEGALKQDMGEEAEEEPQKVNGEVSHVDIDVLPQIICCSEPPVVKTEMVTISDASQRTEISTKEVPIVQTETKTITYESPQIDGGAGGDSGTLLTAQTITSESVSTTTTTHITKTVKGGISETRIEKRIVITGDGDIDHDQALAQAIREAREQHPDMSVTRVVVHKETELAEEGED

How the values were obtained:
Assay in all cases: log2 fold change, soluble protein after heating vs DMSO (PISA); higher = thermal stabilisation; K562 lysate, 10 uM; active = over 0.2 and 3.5 SD of the protein, either way, in both replicates (recomputed)
[1] = compound: CCCS(=O)(=O)Nc1ccc(F)c(C(=O)c2c[nH]c3ncc(-c4ccc(Cl)cc4)cc23)c1F [vemurafenib]
How it was run: (§1)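 Log-two fold change in thermal stability relative to solvent controls is reported from duplicates. For each sample, crude K562 extract from dounce-homogenised pellets in PBS pH 7.4 with 1 mM MgCl2, at 1 mg/mL protein, was treated with 10 μM compound for 30 min. Aliquots heated for 3 min across 48°C-58°C were pooled, brought to 0.5% NP-40 at 4°C and cleared at 21,000xg for 90 min. The supernatant was quantified by TMTpro 16plex LC-MS/MS with channel sums equalised.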

[2] = compound: CCCS(=O)(=O)Nc1ccc(F)c(C(=O)c2c[nH]c3ncc(Cl)cc23)c1F
How it was run: as §1

[3] = compound: CCN(CCCOc1ccc2c(Nc3cc(CC(=O)Nc4cccc(F)c4)[nH]n3)ncnc2c1)CCOP(=O)(O)O [barasertib]
How it was run: as §1

[4] = compound: CC[C@@H]1C(=O)N(C)c2cnc(Nc3ccc(C(=O)NC4CCN(C)CC4)cc3OC)nc2N1C1CCCC1
How it was run: as §1

[5] = compound: CC[C@@H]1C(=O)N(C)c2cnc(Nc3ccc(C(=O)N[C@H]4CC[C@H](N5CCN(CC6CC6)CC5)CC4)cc3OC)nc2N1C(C)C [volasertib]
How it was run: as §1

[6] = compound: CCn1c(C(=O)N(C2CC2)C2CC2)cc2c3c(ncn3C)c(Nc3cc(C)n(C)n3)nc21
How it was run: as §1

[7] = compound: CCn1cc(-c2ccnc3[nH]c(-c4cccc(CN(C)C)c4)cc23)c(-c2ccc(NC(=O)N(C)C)cc2)n1
How it was run: as §1

[8] = compound: CN1CCC(CNc2ccc3ncc(-c4cccc(OC(F)(F)F)c4)n3n2)CC1
How it was run: as §1

[9] = compound: CN1CCN(CCOc2cc(OC3CCOCC3)c3c(Nc4c(Cl)ccc5c4OCO5)ncnc3c2)CC1 [saracatinib]
How it was run: as §1

[10] = compound: CN1CCN(c2nc(C3=C(c4c[nH]c5ccccc45)C(=O)NC3=O)c3ccccc3n2)CC1 [sotrastaurin]
How it was run: as §1

[11] = compound: CN1CC[C@H](c2c(O)cc(O)c3c(=O)cc(-c4ccccc4Cl)oc23)[C@H](O)C1 [alvocidib]
How it was run: as §1

[12] = compound: CN1CCc2c(c3ccccc3n2Cc2ccc(C(=O)NO)cc2)C1 [Tubastatin A]
How it was run: as §1

[13] = compound: CNC(=O)C1=CC=CC=C1NC2=NC(=NC=C2Cl)NC3=C(C=C(C=C3)N4CCOCC4)OC
How it was run: as §1

[14] = compound: CNC(=O)c1ccc(Nc2ncc(C(F)(F)F)c(NCc3nccnc3N(C)S(C)(=O)=O)n2)cc1 [defactinib]
How it was run: as §1

[15] = compound: CNc1nc(-c2ccc3c(N)n[nH]c3c2)cc(N2C[C@@H](C(=O)NC3CCCCC3)CC[C@H]2C)n1
How it was run: as §1

[16] = compound: COC(=O)N[C@@H](C)CNc1nccc(-c2cn(C(C)C)nc2-c2cc(Cl)cc(NS(C)(=O)=O)c2F)n1 [encorafenib]
How it was run: as §1

[17] = compound: COC(=O)[C@H](CCSC)NC(=O)C1=C(C=C(C=C1)NC[C@H](CS)N)C2=CC=CC=C2
How it was run: as §1

[18] = compound: COc1cc(Nc2ncc3c(n2)-c2ccc(Cl)cc2C(c2c(F)cccc2OC)=NC3)ccc1C(=O)O [alisertib]
How it was run: as §1

[19] = compound: COc1cc2nc(-c3cc(F)ccc3O)nc(N[C@@H]3CNC[C@H]3C(C)(C)O)c2cc1OC
How it was run: as §1

[20] = compound: COc1cc2ncnc(Nc3ccc(F)c(Cl)c3)c2cc1OCCCN1CCOCC1 [gefitinib]
How it was run: as §1

Measured: log2 fold change

EPHX1 (UniProt P07099)
inactive: [1] -0.016 | [2] 0.021 | [3] 0.023 | [4] 0.005 | [5] 0.01 | [6] -0.017 | [7] -0.02 | [8] 0.063 | [9] 0.006 | [10] 0.025 | [11] -0.012 | [12] -0.006 | [13] 0.019 | [14] 0.041 | [15] -0.155 | [16] 0.085 | [17] -0.074 | [18] -0.02 | [19] -0.002 | [20] 0

ENOSF1 (UniProt Q7L5Y1)
inactive: [1] 0.017 | [2] 0.001 | [3] -0.003 | [4] 0.065 | [5] -0.056 | [6] 0.007 | [7] -0.043 | [8] 0.005 | [9] 0.024 | [10] 0.011 | [11] 0.002 | [12] 0.022 | [13] 0.015 | [14] -0.033 | [15] 0.077 | [16] -0.026 | [17] 0.08 | [18] -0.051 | [19] 0.011 | [20] -0.014

ELOVL5 isoform 2 (UniProt Q9NYP7)
inactive: [1] -0.079 | [2] -0.028 | [3] 0.057 | [4] -0.076 | [5] -0.09 | [6] 0.075 | [7] -0.104 | [8] 0.047 | [9] 0.075 | [10] 0.071 | [11] -0.033 | [12] -0.134 | [14] -0.028 | [15] -0.12 | [16] 0.074 | [17] -0.081 | [18] 0.098 | [19] -0.036 | [20] 0.042

EPB41, A0A2R8Y783
inactive: [1] 0.129 | [2] 0.063 | [3] 0.112 | [4] -0.141 | [5] 0.057 | [7] -0.136 | [8] -0.048 | [9] 0.075 | [11] -0.248 | [14] 0.05 | [15] -0.13 | [16] -0.523 | [17] 0.118 | [19] 0.029

ELAC1 (UniProt Q9H777)
inactive: [1] -0.005 | [2] 0.043 | [3] -0.101 | [4] -0.042 | [5] 0 | [7] -0.003 | [8] 0.055 | [11] -0.087 | [14] -0.058 | [16] 0.104 | [17] -0.037 | [19] 0.136

EIF3J isoform 2 (UniProt O75822)
inactive: [1] 0.157 | [2] 0.017 | [4] -0.002 | [5] 0.016 | [6] -0.045 | [7] 0.313 | [8] -0.204 | [11] 0.061 | [12] 0.095 | [14] -0.061 | [16] 0.001 | [17] 0.101 | [19] -0.006

ELMO2 (UniProt Q96JJ3)
inactive: [1] 0.092 | [2] 0.035 | [5] 0.066 | [6] -0.007 | [7] -0.087 | [8] 0.091 | [9] 0.008 | [10] -0.025 | [11] -0.149 | [12] -0.106 | [13] -0.029 | [14] -0.018 | [15] 0.059 | [18] 0.043 | [19] -0.133 | [20] 0.035

EPB41L3 (UniProt Q9Y2J2)
inactive: [1] -0.093 | [2] 0.003 | [3] -0.024 | [4] 0.045 | [5] 0.006 | [6] 0.165 | [7] 0.035 | [8] 0.006 | [9] 0.009 | [10] 0.008 | [11] -0.04 | [12] -0.094 | [13] 0.008 | [14] 0.041 | [15] -0.036 | [16] -0.003 | [17] -0.023 | [18] 0.013 | [19] -0.028 | [20] 0.008

EIF3L (UniProt Q9Y262)
inactive: [1] 0.018 | [2] -0.005 | [3] -0.006 | [4] -0.041 | [5] -0.023 | [6] -0.004 | [7] -0.031 | [8] -0.016 | [9] 0.005 | [10] 0.005 | [11] 0.036 | [12] 0.017 | [13] -0.008 | [14] -0.008 | [15] -0.013 | [16] -0.019 | [17] 0.032 | [18] 0.018 | [19] -0.002 | [20] -0.03

EPB41, A0A2R8Y6D0
active: [8] 0.594
inactive: [1] -0.019 | [2] -0.004 | [3] 0.043 | [4] -0.108 | [5] 0.006 | [6] -0.24 | [7] -0.047 | [9] -0.082 | [10] 0.044 | [11] -0.015 | [12] -0.033 | [13] 0.114 | [14] 0.098 | [15] -0.178 | [16] 0.029 | [17] 0.052 | [18] 0.165 | [19] -0.014 | [20] 0.407

EML5 isoform 5 (UniProt Q05BV3)
inactive: [2] -0.069 | [5] -0.067 | [6] -0.054 | [7] -0.103 | [8] 0.023 | [9] 0.042 | [10] 0.143 | [11] -0.091 | [12] -0.108 | [13] -0.079 | [15] -0.12 | [18] -0.046 | [19] 0.043 | [20] 0.066

ENTR1 (UniProt Q96C92)
inactive: [1] 0.071 | [4] -0.026 | [6] -0.125 | [10] -0.061 | [12] -0.044 | [14] -0.007 | [16] -0.066 | [17] -0.092 | [18] 0.085 | [20] 0.225

EPG5 (UniProt Q9HCE0)
inactive: [2] 0.149 | [3] 0.052 | [4] -0.016 | [5] -0.112 | [6] -0.033 | [7] -0.062 | [8] 0.017 | [9] 0.24 | [10] 0.025 | [11] 0.145 | [12] -0.035 | [13] 0.212 | [15] 0.05 | [16] 0.026 | [17] -0.107 | [18] -0.058 | [19] 0.057 | [20] 0.092

Retrieved one by one from above (2):
EPB41, A0A2R8Y6D0
active: [8] 0.594
inactive: [1] -0.019 | [2] -0.004 | [3] 0.043 | [4] -0.108 | [5] 0.006 | [6] -0.24 | [7] -0.047 | [9] -0.082 | [10] 0.044 | [11] -0.015 | [12] -0.033 | [13] 0.114 | [14] 0.098 | [15] -0.178 | [16] 0.029 | [17] 0.052 | [18] 0.165 | [19] -0.014 | [20] 0.407

EIF3L (UniProt Q9Y262)
inactive: [1] 0.018 | [2] -0.005 | [3] -0.006 | [4] -0.041 | [5] -0.023 | [6] -0.004 | [7] -0.031 | [8] -0.016 | [9] 0.005 | [10] 0.005 | [11] 0.036 | [12] 0.017 | [13] -0.008 | [14] -0.008 | [15] -0.013 | [16] -0.019 | [17] 0.032 | [18] 0.018 | [19] -0.002 | [20] -0.03

More entries follow:

ERCC6 (UniProt P0DP91)
inactive: [3] 0.144 | [4] 0.121 | [6] -0.215 | [9] 0.059 | [12] 0.064 | [13] -0.379 | [15] -0.064 | [16] -0.114 | [17] -0.028 | [18] -0.077 | [20] -0.11

EPN1 isoform 3 (UniProt Q9Y6I3)
inactive: [2] 0.082 | [5] -0.069 | [6] -0.11 | [7] -0.453 | [8] 0.231 | [9] 0.2 | [10] 0.161 | [11] -0.029 | [12] 0.137 | [13] -0.264 | [15] -0.003 | [18] -0.214 | [19] 0.079 | [20] 0.004

EPB41L2 isoform 4 (UniProt O43491)
inactive: [2] -0.03 | [3] 0.176 | [5] 0.039 | [6] -0.08 | [7] -0.098 | [8] 0.048 | [11] -0.009 | [12] 0.027 | [18] 0.125 | [19] -0.065 | [20] -0.156

EIF2AK3 (UniProt Q9NZJ5)
inactive: [2] -0.216 | [5] 0.231 | [6] 0.119 | [7] -0.063 | [8] -0.199 | [9] 0.01 | [11] 0.281 | [12] -0.369 | [13] 0.28 | [15] 0.104 | [18] -0.128 | [19] -0.197 | [20] 0.001

EPB41 isoform 4 (UniProt P11171)
inactive: [2] 0.014 | [5] 0.134 | [6] -0.079 | [7] -0.073 | [8] -0.065 | [10] -0.02 | [11] -0.014 | [12] 0.012 | [13] -0.089 | [18] -0.09 | [19] -0.153 | [20] -0.096

EIF4A1 (UniProt J3KS25)
inactive: [1] 0.039 | [4] 0.126 | [6] -0.14 | [12] -0.029 | [14] -0.042 | [16] -0.097 | [17] 0.073

EPN2 (UniProt I3L356)
inactive: [2] 0.212 | [3] -0.106 | [5] -0.026 | [7] -0.277 | [8] 0.075 | [11] -0.108 | [18] -0.253 | [19] -0.02 | [20] 0.321

EIF4G1 isoform 5 (UniProt Q04637)
inactive: [2] 0.064 | [5] 0.115 | [18] -0.019 | [19] -0.064 | [20] -0.147

EIF3B (UniProt C9JQN7)
inactive: [2] -0.001 | [3] 0.006 | [5] -0.045 | [6] -0.08 | [7] -0.121 | [8] 0.028 | [10] 0.044 | [11] -0.039 | [12] 0.082 | [13] 0.077 | [18] -0.108 | [19] 0.005 | [20] -0.038
